According to publication PMC12339706:
Results are given in words; binding and its absence hold for the method and conditions named. In cells and extracts the contact can be indirect. Some entries that bind do so weakly or less than the wild type. Tags and fused reporters may be left off the sequences shown.

Target: T1, Flag-TRIM59 (UniProt Q8IWR1)
T1 sequence: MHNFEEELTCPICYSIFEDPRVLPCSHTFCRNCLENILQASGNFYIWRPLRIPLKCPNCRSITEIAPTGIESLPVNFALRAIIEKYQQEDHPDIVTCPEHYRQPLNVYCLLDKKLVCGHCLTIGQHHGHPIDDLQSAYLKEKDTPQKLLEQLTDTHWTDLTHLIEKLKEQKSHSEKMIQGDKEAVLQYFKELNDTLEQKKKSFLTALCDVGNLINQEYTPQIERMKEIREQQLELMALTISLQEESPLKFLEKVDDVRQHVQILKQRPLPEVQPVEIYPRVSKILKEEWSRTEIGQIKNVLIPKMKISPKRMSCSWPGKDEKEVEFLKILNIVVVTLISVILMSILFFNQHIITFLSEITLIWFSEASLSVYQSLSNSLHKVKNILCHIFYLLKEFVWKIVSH
Assay: co-IP; HEK-293T cells transfected with Flag-TRIM59 and Myc-ACAT1, MG132 20 uM for 6 h; anti-Flag and anti-Myc immunoprecipitation (5 mg protein, 5 ug antibody or IgG, 4 °C overnight), protein A/G magnetic beads, Western blot

B1: Myc-ACAT1 (enzyme, UniProt P24752 34-427)
chain: VSKPTLKEVVIVSATRTPIGSFLGSLSLLPATKLGSIAIQGAIEKAGIPKEEVKEAYMGNVLQGGEGQAPTRQAVLGAGLPISTPCTTINKVCASGMKAIMMASQSLMCGHQDVMVAGGMESMSNVPYVMNRGSTPYGGVKLEDLIVKDGLTDVYNKIHMGSCAENTAKKLNIARNEQDAYAINSYTRSKAAWEAGKFGNEVIPVTVTVKGQPDVVVKEDEEYKRVDFSKVPKLKTVFQKENGTVTAANASTLNDGAAALVLMTADAAKRLNVTPLARIVAFADAAVEPIDFPIAPVYAASMVLKDVGLKKEDIAMWEVNEAFSLVVLANIKMLEIDPQKVNINGGAVSLGHPIGMSGARIVGHLTHALKQGEYGLASICNGGGGASAMLIQKL
binding: binds
